2 compounds from patent US9242009B2, “Compositions and methods to treat neurodegenerative diseases” (The General Hospital Corporation, priority 2012, dated 2016) can be followed below.

This series in a line: Sulfide release from H2S donors in cell-free culture medium and buffers (HPLC, MBB). The format is physicochemical. Particulars: 20 μM compound added at time 0; DMEM/F12 with 10% FBS without cells; pH 7.4; 37° C.

In the case of `O=C(O)c1ccc(-c2cssc2=S)cc1` [ACS48, 4-(3-thioxo-3H-1,2-dithiol-4-yl)-benzoic acid], the “Sulfide levels in the medium after 24 hours” value turned out to be 3.6 µM.

Consider `C[C@]12C[C@@H]3C[C@](C)(C1)C[C@@](NC(=O)c1ccc(-c4cssc4=S)cc1)(C3)C2` [S-memantine, N-((1r,3R,5S,7r)-3,5-dimethyladamantan-1-yl)-4-(3-thioxo-3H-1,2-dithiol-4-yl)-benzamide], for which the “Sulfide levels in the medium after 24 hours” value was 5.1 µM.
